Results published in paper PMC5656751.
Results are given in words; binding and its absence hold for the method and conditions named. In cells and extracts the contact can be indirect. Some binding calls cover weakened binding; strength is not graded here. For some assays here: Where a sequence is shown, tags or fusion partners need not be part of it.

The chains behind the UniProt entries cited, without tags or fusion partners.
UniProt Q9VK45: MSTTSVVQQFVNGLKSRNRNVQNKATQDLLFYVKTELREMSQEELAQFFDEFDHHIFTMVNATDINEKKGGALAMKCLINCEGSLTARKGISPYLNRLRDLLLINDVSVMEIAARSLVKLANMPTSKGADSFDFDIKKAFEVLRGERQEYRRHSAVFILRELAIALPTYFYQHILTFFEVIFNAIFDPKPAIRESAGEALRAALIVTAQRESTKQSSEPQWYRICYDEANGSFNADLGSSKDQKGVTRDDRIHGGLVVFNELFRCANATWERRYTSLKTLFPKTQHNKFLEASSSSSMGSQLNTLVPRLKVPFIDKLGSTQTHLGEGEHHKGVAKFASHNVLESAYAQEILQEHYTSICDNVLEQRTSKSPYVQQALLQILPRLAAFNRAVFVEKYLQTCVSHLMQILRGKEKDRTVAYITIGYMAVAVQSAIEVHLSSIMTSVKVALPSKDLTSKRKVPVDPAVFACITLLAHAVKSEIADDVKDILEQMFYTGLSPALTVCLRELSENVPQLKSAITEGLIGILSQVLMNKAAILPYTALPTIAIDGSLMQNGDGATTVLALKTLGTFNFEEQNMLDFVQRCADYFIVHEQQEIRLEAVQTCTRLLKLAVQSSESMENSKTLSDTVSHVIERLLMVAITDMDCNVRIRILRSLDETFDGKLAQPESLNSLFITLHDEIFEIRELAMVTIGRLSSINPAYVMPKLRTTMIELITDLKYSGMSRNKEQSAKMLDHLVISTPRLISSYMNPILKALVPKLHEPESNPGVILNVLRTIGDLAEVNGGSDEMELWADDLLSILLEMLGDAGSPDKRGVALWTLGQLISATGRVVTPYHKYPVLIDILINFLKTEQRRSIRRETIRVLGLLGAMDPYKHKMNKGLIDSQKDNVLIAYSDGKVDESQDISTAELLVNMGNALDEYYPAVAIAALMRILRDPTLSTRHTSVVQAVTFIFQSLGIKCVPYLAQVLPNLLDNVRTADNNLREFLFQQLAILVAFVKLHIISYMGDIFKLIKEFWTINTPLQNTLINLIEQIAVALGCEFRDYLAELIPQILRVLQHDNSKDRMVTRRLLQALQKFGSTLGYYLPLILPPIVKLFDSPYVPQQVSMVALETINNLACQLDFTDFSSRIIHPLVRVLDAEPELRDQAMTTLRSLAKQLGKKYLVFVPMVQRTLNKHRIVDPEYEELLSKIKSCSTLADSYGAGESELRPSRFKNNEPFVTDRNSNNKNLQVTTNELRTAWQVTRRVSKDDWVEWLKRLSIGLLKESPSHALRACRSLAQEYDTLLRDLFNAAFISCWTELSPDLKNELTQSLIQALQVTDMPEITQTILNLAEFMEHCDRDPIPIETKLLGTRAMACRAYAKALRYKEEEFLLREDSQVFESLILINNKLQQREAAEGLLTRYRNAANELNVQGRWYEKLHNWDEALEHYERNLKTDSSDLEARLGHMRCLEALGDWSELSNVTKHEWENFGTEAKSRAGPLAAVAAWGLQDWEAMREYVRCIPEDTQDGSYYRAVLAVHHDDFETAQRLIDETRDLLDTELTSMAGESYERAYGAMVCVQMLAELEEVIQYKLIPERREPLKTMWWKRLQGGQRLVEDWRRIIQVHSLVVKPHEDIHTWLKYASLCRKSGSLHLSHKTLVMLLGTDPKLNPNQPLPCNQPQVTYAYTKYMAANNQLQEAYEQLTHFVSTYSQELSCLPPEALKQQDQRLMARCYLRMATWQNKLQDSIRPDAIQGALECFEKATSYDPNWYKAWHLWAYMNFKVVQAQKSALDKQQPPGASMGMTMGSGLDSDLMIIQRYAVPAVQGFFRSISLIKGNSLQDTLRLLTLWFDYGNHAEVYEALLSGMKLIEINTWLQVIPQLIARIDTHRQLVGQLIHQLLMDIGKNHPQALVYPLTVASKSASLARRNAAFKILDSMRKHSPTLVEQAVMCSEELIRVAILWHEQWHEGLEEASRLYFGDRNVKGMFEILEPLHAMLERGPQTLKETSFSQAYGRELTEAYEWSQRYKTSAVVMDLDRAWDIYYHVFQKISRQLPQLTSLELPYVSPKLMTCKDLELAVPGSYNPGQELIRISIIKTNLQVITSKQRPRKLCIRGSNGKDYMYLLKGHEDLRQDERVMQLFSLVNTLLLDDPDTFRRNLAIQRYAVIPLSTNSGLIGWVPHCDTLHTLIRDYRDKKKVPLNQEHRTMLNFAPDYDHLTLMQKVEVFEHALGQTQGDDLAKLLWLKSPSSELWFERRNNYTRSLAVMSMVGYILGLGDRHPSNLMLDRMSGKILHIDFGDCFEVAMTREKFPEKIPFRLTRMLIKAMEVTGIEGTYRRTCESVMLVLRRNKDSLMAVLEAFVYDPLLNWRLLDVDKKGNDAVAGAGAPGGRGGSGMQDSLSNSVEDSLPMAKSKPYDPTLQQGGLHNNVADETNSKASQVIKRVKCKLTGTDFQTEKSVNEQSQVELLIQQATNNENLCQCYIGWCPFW

Assays:
[1] = molecular target: T1, HA-tagged Fork Head (FKH) (Drosophila) (UniProt P14734); assay: co-IP; S2 cells transiently transfected with FKH-HA and/or dAKT-FLAG, 15 min of insulin stimulation; anti-HA immunoprecipitates, immunoblotting with anti-HA or anti-FLAG
T1 sequence: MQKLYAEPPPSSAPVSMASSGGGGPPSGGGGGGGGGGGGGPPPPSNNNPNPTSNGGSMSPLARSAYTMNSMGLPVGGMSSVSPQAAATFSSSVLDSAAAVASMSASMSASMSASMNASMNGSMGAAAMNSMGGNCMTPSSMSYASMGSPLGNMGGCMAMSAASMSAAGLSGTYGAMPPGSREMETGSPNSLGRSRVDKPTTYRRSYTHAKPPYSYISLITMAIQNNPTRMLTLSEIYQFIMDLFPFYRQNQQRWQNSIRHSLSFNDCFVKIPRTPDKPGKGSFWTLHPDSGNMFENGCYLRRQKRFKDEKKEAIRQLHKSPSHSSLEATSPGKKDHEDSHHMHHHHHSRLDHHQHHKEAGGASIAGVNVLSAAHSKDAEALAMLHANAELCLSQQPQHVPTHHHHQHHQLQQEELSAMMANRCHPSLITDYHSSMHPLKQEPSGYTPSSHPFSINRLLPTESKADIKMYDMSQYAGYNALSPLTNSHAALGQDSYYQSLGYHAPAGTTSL

[2] = molecular target: FLAG-tagged dTOR (Drosophila) (UniProt Q9VK45); assay: co-IP; S2 cells transiently transfected with dTOR-FLAG; anti-FLAG immunoprecipitates, immunoblotting with anti-FKH or anti-FLAG

B1: FLAG-tagged dAKT (enzyme, UniProt Q8INB9 1-611)
chain: MNYLPFVLQRRSTVVASAPAPGSASRIPESPTTTGSNIINIIYSQSTHPNSSPTSGSAEKFSWQQSWPSRTSAAPTHDSGTMSINTTFDLSSPSVTSGHALTEQTQVVKEGWLMKRGEHIKNWRQRYFVLHSDGRLMGYRSKPADSASTPSDFLLNNFTVRGCQIMTVDRPKPFTFIIRGLQWTTVIERTFAVESELERQQWTEAIRNVSSRLIDVGEVAMTPSEQTDMTDVDMATIAEDELSEQFSVQGTTCNSSGVKKVTLENFEFLKVLGKGTFGKVILCREKATAKLYAIKILKKEVIIQKDEVAHTLTESRVLKSTNHPFLISLKYSFQTNDRLCFVMQYVNGGELFWHLSHERIFTEDRTRFYGAEIISALGYLHSQGIIYRDLKLENLLLDKDGHIKVADFGLCKEDITYGRTTKTFCGTPEYLAPEVLDDNDYGQAVDWWGTGVVMYEMICGRLPFYNRDHDVLFTLILVEEVKFPRNITDEAKNLLAGLLAKDPKKRLGGGKDDVKEIQAHPFFASINWTDLVLKKIPPPFKPQVTSDTDTRYFDKEFTGESVELTPPDPTGPLGSIAEEPLFPQFSYQGDMASTLGTSSHISTSTSLASMQ
[1]
  binding: binds

B2: endogenous FKH protein (protein, UniProt P14734 1-510)
chain: MQKLYAEPPPSSAPVSMASSGGGGPPSGGGGGGGGGGGGGPPPPSNNNPNPTSNGGSMSPLARSAYTMNSMGLPVGGMSSVSPQAAATFSSSVLDSAAAVASMSASMSASMSASMNASMNGSMGAAAMNSMGGNCMTPSSMSYASMGSPLGNMGGCMAMSAASMSAAGLSGTYGAMPPGSREMETGSPNSLGRSRVDKPTTYRRSYTHAKPPYSYISLITMAIQNNPTRMLTLSEIYQFIMDLFPFYRQNQQRWQNSIRHSLSFNDCFVKIPRTPDKPGKGSFWTLHPDSGNMFENGCYLRRQKRFKDEKKEAIRQLHKSPSHSSLEATSPGKKDHEDSHHMHHHHHSRLDHHQHHKEAGGASIAGVNVLSAAHSKDAEALAMLHANAELCLSQQPQHVPTHHHHQHHQLQQEELSAMMANRCHPSLITDYHSSMHPLKQEPSGYTPSSHPFSINRLLPTESKADIKMYDMSQYAGYNALSPLTNSHAALGQDSYYQSLGYHAPAGTTSL
[2]
  binding: binds
